Source: PubChem BioAssay AID1347426 (Functional Genomics Laboratory (NCATS/FGL), 2020)
The campaign covered roughly 31,000 sequences. About 1,400 (4.5%) were called active.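 Rule for the calls: active = median seed-adjusted z-score above 1 or below -1; inactive = the rest.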 The list shows a part of the results.

Assay: Novel Modifiers of Survival Motor Neuron (SMN) Protein: Gene Identification via Genome-wide siRNA Screen;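 note: luminescence tracks full-length SMN protein made from the SMN2 reporter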
Conditions: HEK293T SMN2-luciferase reporter, siRNA knockdown, 72 h; actives lie on both sides
In short: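 Steps: spot 1 pmol siRNA, add Lipofectamine RNAiMax in serum-free DMEM, seed HEK293T SMN2–luciferase reporter cells; incubate 72 h at 37 °C; add ONE-Glo; normalize luminescence to control siRNA, log10, MAD. Candidates: |MAD| > 1.0.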
With CAAAAGGACAAAUCAACGATT against DDAH1 the median seed-adjusted z-score was inactive: 0.138. With GGGAGAUCUUCGACUCAUATT against ADRBK1 the median seed-adjusted z-score was inactive: 0. In the case of CAAAGGAUGUCAUUCGUAATT against CKAP5, the median seed-adjusted z-score was active: -1.87. In the case of GCUACUUGGUGGGUGAUGATT against PAK3, the median seed-adjusted z-score was inactive: 0. With GGAAUCUCAUUUUAUCGUATT against SLC7A2 the median seed-adjusted z-score was inactive: -0.245. In the case of GAGUCAAUCUCCGAAAACATT against PKDREJ, the median seed-adjusted z-score was inactive: 0.376. For GCACAGACGUGGUUCUGCATT against PVRL1, the median seed-adjusted z-score was inactive: -0.362. With CCACGGCACAUGGAACUAATT against SLC7A14 the median seed-adjusted z-score was inactive: 0.132. For CCUGAUCACUUGAACUAUUTT against HACE1, the median seed-adjusted z-score was inactive: 0. In the case of GGACUCUUUUGAAAGCAUATT against ETS1, the median seed-adjusted z-score was inactive: -0.0588. For GAACUUCGUCAUCCAAAUATT against CDC2, the median seed-adjusted z-score was inactive: 0.424. For GGAUAACUGCACAUAAGGATT against TGS1, the median seed-adjusted z-score was inactive: -0.564. For CAGAUAGACUGAUCUCAAATT against 5-Mar, the median seed-adjusted z-score was inactive: 0. In the case of CUAAGAAUCUGCUUAGUAATT against CLDN5, the median seed-adjusted z-score was inactive: 0. With UAAUGACACUUAUCAAAUATT against PLGLB2 the median seed-adjusted z-score was inactive: 0.234. In the case of GCAAAUCGCUAGCAUCAUUTT against MLL2, the median seed-adjusted z-score was active: -2.11. In the case of GCUACUAACAUUACUCCAATT against FOLH1, the median seed-adjusted z-score was inactive: 0.148. With GAGCAGUCGCGAGAAGAUUTT against PPP1R12C the median seed-adjusted z-score was inactive: -0.535. For CCAUGAUGAUAUUCCUUAUTT against PCYT1A, the median seed-adjusted z-score was inactive: 0.0429. In the case of CGGACAAAUUGGUCAAUGATT against ATP1A3, the median seed-adjusted z-score was inactive: 0.329. In the case of CAACCGAACAGGACCUGAATT against TARDBP, the median seed-adjusted z-score was inactive: 0.987. In the case of GAUCCAGAUUGGUCAAAAATT against PPAP2A, the median seed-adjusted z-score was inactive: 0. In the case of GGAAGAAAUUAGCUAAAAATT against MKI67IP, the median seed-adjusted z-score was inactive: 0.426. For UGAUGCCUGUGAUACACUATT against NEU1, the median seed-adjusted z-score was inactive: -0.425. For GAUACUCAGAAGUUGAUAATT against MYSM1, the median seed-adjusted z-score was inactive: -0.116. For GGACAGACAGACUAAUGUATT against FOXJ1, the median seed-adjusted z-score was inactive: -0.553. With AGCUCACGCUGGGAAAAUUTT against SGCG the median seed-adjusted z-score was inactive: 0.886. With CAUCAGAUGGGAGAAUGAUTT against LSM8 the median seed-adjusted z-score was inactive: -0.44. In the case of GACGAUUAGUGGGUCAAAATT against GRM7, the median seed-adjusted z-score was inactive: 0.389. For GCAUAUGACUUGUAUUCCUTT against TFB2M, the median seed-adjusted z-score was inactive: 0.206. With GCUCAUAAGGAUGAACUAUTT against KCNH5 the median seed-adjusted z-score was inactive: -0.827. For UCAUCACAGCGGUACUGUATT against ITGAX, the median seed-adjusted z-score was inactive: -0.0677. For GAUUAUACCUUGACAAUGUTT against GABRB2, the median seed-adjusted z-score was inactive: 0.288. For GGAGAUACCCAAGCAACUATT against PTAR1, the median seed-adjusted z-score was inactive: -0.507. In the case of GGUUAAUUAUGUAUGGUUUTT against SLC9A9, the median seed-adjusted z-score was inactive: 0.143. In the case of GAGAAGAACCAGUACAAGATT against KCNJ12, the median seed-adjusted z-score was inactive: -0.641. In the case of CCACUAGCUGAUUACUAUATT against MED6, the median seed-adjusted z-score was active: -2.15. For CCAGGCUUCCCAAAAGUGUTT against S100P, the median seed-adjusted z-score was inactive: -0.00831. In the case of CGGUCAUUGUCGAUGGAUATT against ZNF295, the median seed-adjusted z-score was inactive: 0.371. With GAUCAUUAAGGAGUAUGAATT against STOML3 the median seed-adjusted z-score was inactive: -0.0711. With CAACUAGUGCAACCAGUAATT against ZNF207 the median seed-adjusted z-score was active: -3.1. With GGAAAUUGGUUUGUAGGAATT against PVRL3 the median seed-adjusted z-score was inactive: -0.0385. For AUGUGGUGGUUUAUAGCUATT against ERCC2, the median seed-adjusted z-score was inactive: -0.0551. With GCAUGACCCUCACGAUACATT against LIMK1 the median seed-adjusted z-score was inactive: -0.428. With GGGAAGCUAUGCGAAAUUATT against RBPJ the median seed-adjusted z-score was inactive: -0.452. With GCAGUUCGGCAGUAUCUGUTT against PSMD6 the median seed-adjusted z-score was active: -1.03. For GACCAGCCGUGUAGAAGAATT against PPP1R12B, the median seed-adjusted z-score was inactive: 0.416. For GCAGCUAUUUGUCUCCGAATT against USP43, the median seed-adjusted z-score was inactive: 0. For GCAAAAGGUGUUUCACAUUTT against FGD1, the median seed-adjusted z-score was inactive: 0.414. With GCAUCUCACCCACUGCCUUTT against TSKU the median seed-adjusted z-score was inactive: -0.548. In the case of CCCUUGGUGUGGUACUUCATT against CYP20A1, the median seed-adjusted z-score was inactive: -0.796. In the case of AAAGAGCUCCGAGCCUUUATT against PRICKLE3, the median seed-adjusted z-score was inactive: 0.0332. With GGAAAAUACUAUACCCUCATT against ACADVL the median seed-adjusted z-score was inactive: -0.476. For GAACAUCAUCUGUAGUUCATT against HCRTR2, the median seed-adjusted z-score was inactive: -0.236. In the case of AAAUCGACGUGGUCACUGUTT against MYCN, the median seed-adjusted z-score was inactive: 0.00242. In the case of GCCUGAGACCAAAAACAGATT against SLC2A9, the median seed-adjusted z-score was inactive: 0.216. In the case of GCUUUGGUGUGUUUGCAGATT against NTHL1, the median seed-adjusted z-score was inactive: 0.364. With CAUCGUCUCUGCUGACAAATT against TUBAL3 the median seed-adjusted z-score was active: 1.05. With GCUUCGUGGUGGACUCAAATT against MYH3 the median seed-adjusted z-score was inactive: -0.113. With GAAUCAUCCCUUUAGAGAATT against CYTH1 the median seed-adjusted z-score was inactive: 0.348. In the case of GGACAAAGCUAAUUGAUCUTT against EBP, the median seed-adjusted z-score was inactive: 0.017. For GGAAGAACAUGACAACCAATT against IFIT1, the median seed-adjusted z-score was inactive: -0.489. With AGGUUUUAACGAUUUGUUUTT against MAZ the median seed-adjusted z-score was inactive: 0.316. In the case of CCAAGAAGAUCAGCACCUUTT against GPR26, the median seed-adjusted z-score was active: -1.33. For GACUUACACUCAACCCUCATT against FUK, the median seed-adjusted z-score was inactive: -0.0381. In the case of UCAUCUCGCUGGUAACUCATT against EXOSC2, the median seed-adjusted z-score was inactive: -0.0798. With “GGCUGGAUCUUACAAGUGUTT against DKFZP586H2123” the median seed-adjusted z-score was inactive: -0.38. In the case of CCUCAACAGUCACGUCAGATT against MAZ, the median seed-adjusted z-score was inactive: 0.316. In the case of GUUUGACAUCGUCAAGAAATT against ARFIP2, the median seed-adjusted z-score was inactive: 0.748. With CCUAUGAUAUGGUUCCAGATT against COX5A the median seed-adjusted z-score was inactive: -0.348. In the case of CCAUUUCGAUGCAACGUGUTT against ZNF235, the median seed-adjusted z-score was inactive: 0.348. In the case of GGCAUAUAUCAAUCGCCUATT against ENTPD7, the median seed-adjusted z-score was inactive: 0.368. For GAGUUCGAGAGAUCCAAGATT against UQCRQ, the median seed-adjusted z-score was inactive: 0.0241. With CCUCGGAAGAGAUCACUAUTT against POU2F1 the median seed-adjusted z-score was inactive: 0.317. With CAGAAUAUAUGACAGGAAATT against YY1 the median seed-adjusted z-score was active: 1.94. With CACUGUGAAUCGUCGCUAUTT against SNX19 the median seed-adjusted z-score was inactive: 0.67. With GCAAGCGAGUCAACACCAATT against DRD2 the median seed-adjusted z-score was inactive: -0.0273. In the case of GUAGGAAUGCUAACAAUUATT against PRKAG2, the median seed-adjusted z-score was inactive: -0.367. In the case of CCGUCAAGGUGUAUUUUGATT against PPIB, the median seed-adjusted z-score was inactive: 0.038. For GUAUCUAGUGAGACAAUUATT against GABRA6, the median seed-adjusted z-score was inactive: 0.466. For CCAUUAAAGAAAAGGGUAATT against CA13, the median seed-adjusted z-score was inactive: -0.212. In the case of GGAAUUGCCGUGUGCAACATT against CTBP2, the median seed-adjusted z-score was inactive: -0.241. With GGAUCAAGGCGGAGAGGAATT against JUN the median seed-adjusted z-score was inactive: 0.381. With CUCCACUGCUUUUCCAAGATT against DBX2 the median seed-adjusted z-score was inactive: 0.244. For AGUACAUCCCUGGAACAAATT against CYCS, the median seed-adjusted z-score was inactive: -0.679. In the case of CAGUGAAGGUGAAAUUCGATT against UCHL5, the median seed-adjusted z-score was inactive: -0.358. In the case of GCAGCUUCGAGAUGCUGUATT against GMEB2, the median seed-adjusted z-score was inactive: -0.669. With CGCAAAGCUUUGACAAAGATT against COX4I1 the median seed-adjusted z-score was inactive: -0.39. For GAGUGAUCCUGGAUAUACATT against FUT8, the median seed-adjusted z-score was inactive: 0.464. In the case of UGAAGAAAGUGCACGAAGATT against NEFL, the median seed-adjusted z-score was inactive: 0.305. For GGACUUCGACUGCAAUACUTT against GJB5, the median seed-adjusted z-score was inactive: 0.338. With CCGUCUACCUCUUCAGCUUTT against SLC16A3 the median seed-adjusted z-score was inactive: -0.353. For ACGCGUUUGUAGCAACUGATT against DHX58, the median seed-adjusted z-score was inactive: -0.302. For CCAACAAUGUGGGACACCATT against PARP14, the median seed-adjusted z-score was inactive: -0.289. With GCAAUUUGUCCGUCAACUATT against SELPLG the median seed-adjusted z-score was inactive: 0.0378. For GGAUCCAUAUAAACAGGGATT against FGB, the median seed-adjusted z-score was inactive: 0.481. With CCAGAUAUGGUAUCCCAAUTT against ZNF227 the median seed-adjusted z-score was inactive: 0.0194. For GUCUCAGCGUACUUAAGAATT against RPP25, the median seed-adjusted z-score was inactive: 0. With CGACCAUGAUUCAGACCUATT against PDPR the median seed-adjusted z-score was inactive: -0.0653. In the case of GACAGUUUCCCUACAAGAATT against MAP2K7, the median seed-adjusted z-score was inactive: -0.772. For CUGGAAUCAUUAUAAGGAUTT against RAMP2, the median seed-adjusted z-score was inactive: 0.289. In the case of AGAGCUUCCCUUCUACAGATT against UTS2, the median seed-adjusted z-score was inactive: 0.0487. With GCAUCGAGAUCGCGACCUATT against GSX1 the median seed-adjusted z-score was inactive: 0.677. With GAACGAUCGUGACUUGAUATT against LCTL the median seed-adjusted z-score was inactive: -0.0821. With UGGUGUCGCUGGAGAAGUATT against GPX7 the median seed-adjusted z-score was inactive: -0.971. For AGAUCGCACUCAUCAUCUUTT against MEF2D, the median seed-adjusted z-score was inactive: 0.0021. For GCUGAAUCGUCAGAACCAATT against MPO, the median seed-adjusted z-score was inactive: -0.223. For AGAUCGAAAAUCAAGUUCATT against OVOL2, the median seed-adjusted z-score was inactive: 0.654.
